System: calf thymus DNA (ct-DNA)
Experiment: Ethidium bromide displacement and fluorescence lifetime
Format: binding
Conditions: ct-DNA–EtBr–complex 1:5:12.5 ratio, pH 7.40
Experimental: The interaction of 4 and 8 and HL^4 and HL^8 with ct-DNA was investigated by spectrofluorometry in ethidium bromide (EtBr) displacement studies. EtBr is a fluorescent probe, and its fluorescence intensity increases upon intercalation into the DNA helix. […] Decrease in the fluorescence may indicate (i) the displacement of EtBr or (ii) (partial) quenching of the fluorescence of the bound probe. In order to separate these processes, fluorescence lifetime measurements were carried out. […] In addition, they provided evidence that the two copper(II) complexes bind to ct-DNA. However, complex 8 replaced EtBr more effectively than 4. To get further insight into the mechanism of action of lead compounds, their antiproliferative activity in wild-type cells HCT116 and HCT116 cell subline with knocked out p53 gene was investigated.
Fluorescence measurements were carried out on a Fluoromax (Horiba Jobin Yvon) fluorometer. A stock solution of calf thymus DNA (ct-DNA, Sigma Aldrich) was prepared as described in our former work.[105] Samples contained 10 μM ct-DNA expressed in base pairs, 5 μM ethidium bromide (EtBr, Sigma Aldrich), and different concentrations of complexes 4 or 8 or proligands HL^4 or HL^8 in 10 mM HEPES buffer (pH = 7.40). The excitation wavelengths were 510 or 455 nm, and the fluorescence emission was measured in the range 530–750 nm. Corrections for self-absorbance and inner filter effect were done according to our former work.[106] Fluorescence lifetime was measured on the same fluorometer equipped with a DeltaHub time-correlated single photon counting (TCSPC) controller using a NanoLED light source N-455 (Horiba Jobin Yvon). Details on the instrument parameters are found in Table S3. The fluorescence intensity decay over time is described by a sum of exponentials, [drawing 3] 3 where αi and τi are the contribution to the total intensity (I) at time point 0 and lifetime of component i, respectively.[107] […] Fractional intensities were calculated as described in our former work.[105]
Figure S 8. Fluorescence intensity values of the ct -DNA–EtBr system in the presence of increasing amount of HL4 (◊), HL8 (∆), 4 (♦) and 8 (▲), orange dashed line denotes the emission signal of free EtBr. […]
Figure S9. Deconvoluted fluorescence intensities and lifetime values (τ) of the ct-DNA–EtBr– indicated complex systems at 1:5:12.5 ratio based on steady -state and fluorescence lifetime measurements. τ3 can be attributed to the intercalated EtBr; in the presence of 8 it was decreased […]
most probably EtBr bound electrostatically at the phosphate backbone of DNA, its relatively large uncertainty is due to the sma ll quantity of this form at these conditions. τ 1 was kept constant in the calculations. {cDNA = 10.0 µM; λEX = 455 nm, λEM = 610 nm; T = 298 K; 10 mM […]

SMILES | fluorescence lifetime t2 (EtBr bound electrostatically) [ns] | fluorescence lifetime t3 (intercalated EtBr) [ns]
CC(=NNC1=NCc2ccccc2-c2c1[nH]c1ccc(Br)cc21)c1ccc(CN2CCOCC2)cn1.[Cl][Cu][Cl] [compound 4, CuCl2(HL^4)·0.5H2O] | 5.8 ± 0.6 | 21.21 ± 0.04
CC(=NNc1nc2ccccc2c2c1[nH]c1ccc(Br)cc12)c1ccc(CN2CCOCC2)cn1.[Cl][Cu][Cl] [compound 8, CuCl2(HL^8)·H2O] | 6.6 ± 0.3 | 18.83 ± 0.06

From paper PMC8842277, “Highly Antiproliferative Latonduine and Indolo[2,3-c]quinoline Derivatives: Complex Formation with Copper(II) Markedly Changes the Kinase Inhibitory Profile” (Journal of Medicinal Chemistry, 2022)
